Laboratory results reported in paper PMC4330386 (Nucleic Acids Research, 2015).
No constants are given. Whether binding was seen depends on the method and setting. For some assays here: Binding seen in cells or lysates may run through a third protein. Some results given as binding are weak or reduced against the parent protein; the word gives no strength. For some assays here: Where a sequence is shown, tags or fusion partners need not be part of it.

How the values were obtained:
[1] = biological target: T1, Mus81-6XHis (full-length Mus81 subunit) (S. cerevisiae) (UniProt Q04149); assay: co-expression and yield of the complex; truncated Mms4 co-expressed with Mus81 in E. coli; data not shown
T1 sequence: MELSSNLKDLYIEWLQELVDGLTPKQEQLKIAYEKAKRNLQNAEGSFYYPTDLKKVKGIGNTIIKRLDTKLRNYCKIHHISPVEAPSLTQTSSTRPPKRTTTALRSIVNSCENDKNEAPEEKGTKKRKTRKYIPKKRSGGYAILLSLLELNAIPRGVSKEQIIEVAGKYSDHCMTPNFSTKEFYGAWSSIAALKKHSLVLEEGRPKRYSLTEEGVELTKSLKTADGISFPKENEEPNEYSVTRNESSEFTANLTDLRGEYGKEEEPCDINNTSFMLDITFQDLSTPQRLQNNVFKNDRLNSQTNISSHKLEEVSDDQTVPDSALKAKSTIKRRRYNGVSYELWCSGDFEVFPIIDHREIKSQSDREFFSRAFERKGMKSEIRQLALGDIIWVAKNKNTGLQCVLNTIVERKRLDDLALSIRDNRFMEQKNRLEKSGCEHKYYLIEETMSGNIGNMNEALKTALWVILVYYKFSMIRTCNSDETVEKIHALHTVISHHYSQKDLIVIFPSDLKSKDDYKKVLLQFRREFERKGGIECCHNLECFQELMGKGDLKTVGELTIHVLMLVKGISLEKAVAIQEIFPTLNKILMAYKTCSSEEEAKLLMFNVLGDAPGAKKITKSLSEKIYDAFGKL

[2] = biological target: T2, Mus81_(Δ120N) of the Mus81_(Δ120N)–Mms4 complex immunoprecipitated from cells (S. cerevisiae) (UniProt Q04149); assay: co-IP; immunoprecipitation with anti-FLAG antibodies from extracts of the same number of cells (Supplementary Figure S3A)
T2 sequence: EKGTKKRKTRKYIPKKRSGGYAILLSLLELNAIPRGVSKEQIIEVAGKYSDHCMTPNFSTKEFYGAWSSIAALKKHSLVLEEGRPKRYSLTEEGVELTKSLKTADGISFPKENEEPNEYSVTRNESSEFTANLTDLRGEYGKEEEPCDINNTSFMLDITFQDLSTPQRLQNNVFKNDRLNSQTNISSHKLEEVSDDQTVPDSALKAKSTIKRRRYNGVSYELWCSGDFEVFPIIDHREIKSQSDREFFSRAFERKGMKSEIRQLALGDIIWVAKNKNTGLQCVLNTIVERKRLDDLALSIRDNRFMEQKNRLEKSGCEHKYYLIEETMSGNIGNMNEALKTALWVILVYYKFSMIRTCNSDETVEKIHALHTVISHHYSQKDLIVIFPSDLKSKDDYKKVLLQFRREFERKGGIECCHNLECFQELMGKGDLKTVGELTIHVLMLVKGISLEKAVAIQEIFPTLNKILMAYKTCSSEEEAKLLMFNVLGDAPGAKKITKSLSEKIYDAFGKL

[3] = biological target: T3, Mus81 of the wild-type Mus81–Mms4 complex immunoprecipitated from cells (S. cerevisiae) (UniProt Q04149); assay: as above
T3 sequence: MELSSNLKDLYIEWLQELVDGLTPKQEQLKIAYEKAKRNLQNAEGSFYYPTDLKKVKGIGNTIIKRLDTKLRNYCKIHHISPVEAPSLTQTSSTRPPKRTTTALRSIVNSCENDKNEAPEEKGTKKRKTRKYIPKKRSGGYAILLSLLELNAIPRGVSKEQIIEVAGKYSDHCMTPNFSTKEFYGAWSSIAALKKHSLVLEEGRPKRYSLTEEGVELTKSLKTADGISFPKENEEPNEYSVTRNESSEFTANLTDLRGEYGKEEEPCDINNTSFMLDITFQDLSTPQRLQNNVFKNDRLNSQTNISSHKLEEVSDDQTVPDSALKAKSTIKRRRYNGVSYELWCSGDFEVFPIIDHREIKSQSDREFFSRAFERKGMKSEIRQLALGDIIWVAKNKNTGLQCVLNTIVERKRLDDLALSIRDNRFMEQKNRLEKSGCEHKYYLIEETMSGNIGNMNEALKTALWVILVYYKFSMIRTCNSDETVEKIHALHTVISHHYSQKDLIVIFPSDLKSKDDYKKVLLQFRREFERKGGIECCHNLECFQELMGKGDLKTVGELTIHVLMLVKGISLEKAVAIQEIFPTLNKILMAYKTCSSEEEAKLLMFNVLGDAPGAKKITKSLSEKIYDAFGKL

[4] = biological target: T4, Mus81 (coimmunoprecipitation, data not shown) (S. cerevisiae) (UniProt Q04149); assay: co-IP; data not shown; format not told
T4 sequence: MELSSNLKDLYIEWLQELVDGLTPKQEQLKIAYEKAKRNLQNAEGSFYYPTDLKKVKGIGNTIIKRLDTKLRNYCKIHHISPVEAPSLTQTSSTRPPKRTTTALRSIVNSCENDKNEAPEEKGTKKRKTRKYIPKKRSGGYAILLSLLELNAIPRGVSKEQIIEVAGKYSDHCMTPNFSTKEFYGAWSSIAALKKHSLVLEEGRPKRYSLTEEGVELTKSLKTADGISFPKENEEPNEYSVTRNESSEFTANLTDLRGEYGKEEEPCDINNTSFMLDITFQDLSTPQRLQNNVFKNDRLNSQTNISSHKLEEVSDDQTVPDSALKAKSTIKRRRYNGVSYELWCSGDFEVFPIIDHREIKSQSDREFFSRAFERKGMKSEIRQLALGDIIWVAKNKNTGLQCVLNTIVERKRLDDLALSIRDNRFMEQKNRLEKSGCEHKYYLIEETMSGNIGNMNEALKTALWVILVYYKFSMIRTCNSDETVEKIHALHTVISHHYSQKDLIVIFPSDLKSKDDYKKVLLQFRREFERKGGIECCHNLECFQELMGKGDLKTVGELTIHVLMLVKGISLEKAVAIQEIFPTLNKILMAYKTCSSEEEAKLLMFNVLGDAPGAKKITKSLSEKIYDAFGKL

[5] = biological target: T5, Rad27 (coimmunoprecipitation) (yeast) (UniProt P26793); assay: co-IP; told in the discussion only; format not told
T5 sequence: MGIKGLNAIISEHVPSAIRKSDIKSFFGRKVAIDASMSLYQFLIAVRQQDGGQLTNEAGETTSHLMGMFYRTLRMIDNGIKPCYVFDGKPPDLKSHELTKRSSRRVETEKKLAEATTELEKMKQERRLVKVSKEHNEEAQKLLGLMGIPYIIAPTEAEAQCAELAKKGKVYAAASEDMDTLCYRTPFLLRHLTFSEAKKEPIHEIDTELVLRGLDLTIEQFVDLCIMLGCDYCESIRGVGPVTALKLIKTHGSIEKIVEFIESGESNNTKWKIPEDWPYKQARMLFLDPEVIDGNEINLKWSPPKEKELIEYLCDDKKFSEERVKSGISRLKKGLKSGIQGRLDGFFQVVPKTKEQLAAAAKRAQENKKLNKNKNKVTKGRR

B1: Mms4_(Δ80N) (domain or fragment, UniProt P38257 81-691)
chain: FFQDISISKLDDFSTTVNSIIDSSLRNENNAKGNAKKLLDDLISDEWSADLESSGKKHNKSQYNLRDIAEKWGVQSLKNPEPIAVDCEYKTQGIGKTNSDISDSPKSQIGAADILFDFPLSPVKHENPTEEKHNSIANENSSPDNSLKPAGKQNHGEDGTSMAKRVYNKGEDEQEHLPKGKKRTIALSRTLINSTKLPDTVELNLSKFLDSSDSITTDVLSTPAKGSNIVRTGSQPIFSNANCFQEAKRSKTLTAEDPKCTKNTAREVSQLENYIAYGQYYTREDSKNKIRHLLKENKNAFKRVNQIYRDNIKARSQMIIEFSPSLLQLFKKGDSDLQQQLAPAVVQSSYNDSMPLLRFLRKCDSIYDFSNDFYYPCDPKIVEENVLILYYDAQEFFEQYTSQKKELYRKIRFFSKNGKHVILILSDINKLKRAIFQLENEKYKARVEQRLSGTEEALRPRSKKSSQVGKLGIKKFDLEQRLRFIDREWHVKIHTVNSHMEFINSLPNLVSLIGKQRMDPAIRYMKYAHLNVKSAQDSTETLKKTFHQIGRMPEMKANNVVSLYPSFQSLLEDIEKGRLQSDNEGKYLMTEAVEKRLYKLFTCTDPNDTIE
For B1, which binding [1] is on record?
Its binding is “binds”.

B2: Mms4 of the complexes immunoprecipitated from cells (protein, UniProt P38257 1-691)
chain: MSQIVDFVEDKDSRNDASIQIIDGPSNVEIIALSESMDQDECKRAHVSSAEMIPSSPQRKSVSNDVENVDLNKSIELSAPFFQDISISKLDDFSTTVNSIIDSSLRNENNAKGNAKKLLDDLISDEWSADLESSGKKHNKSQYNLRDIAEKWGVQSLKNPEPIAVDCEYKTQGIGKTNSDISDSPKSQIGAADILFDFPLSPVKHENPTEEKHNSIANENSSPDNSLKPAGKQNHGEDGTSMAKRVYNKGEDEQEHLPKGKKRTIALSRTLINSTKLPDTVELNLSKFLDSSDSITTDVLSTPAKGSNIVRTGSQPIFSNANCFQEAKRSKTLTAEDPKCTKNTAREVSQLENYIAYGQYYTREDSKNKIRHLLKENKNAFKRVNQIYRDNIKARSQMIIEFSPSLLQLFKKGDSDLQQQLAPAVVQSSYNDSMPLLRFLRKCDSIYDFSNDFYYPCDPKIVEENVLILYYDAQEFFEQYTSQKKELYRKIRFFSKNGKHVILILSDINKLKRAIFQLENEKYKARVEQRLSGTEEALRPRSKKSSQVGKLGIKKFDLEQRLRFIDREWHVKIHTVNSHMEFINSLPNLVSLIGKQRMDPAIRYMKYAHLNVKSAQDSTETLKKTFHQIGRMPEMKANNVVSLYPSFQSLLEDIEKGRLQSDNEGKYLMTEAVEKRLYKLFTCTDPNDTIE
For B2, which binding [2] is on record?
The binding was “binds”.

And the binding [3]?
Its binding is “binds”.

B3: GST-Rad27 (natural protein, yeast, UniProt P26793 1-382, looked up)
chain: MGIKGLNAIISEHVPSAIRKSDIKSFFGRKVAIDASMSLYQFLIAVRQQDGGQLTNEAGETTSHLMGMFYRTLRMIDNGIKPCYVFDGKPPDLKSHELTKRSSRRVETEKKLAEATTELEKMKQERRLVKVSKEHNEEAQKLLGLMGIPYIIAPTEAEAQCAELAKKGKVYAAASEDMDTLCYRTPFLLRHLTFSEAKKEPIHEIDTELVLRGLDLTIEQFVDLCIMLGCDYCESIRGVGPVTALKLIKTHGSIEKIVEFIESGESNNTKWKIPEDWPYKQARMLFLDPEVIDGNEINLKWSPPKEKELIEYLCDDKKFSEERVKSGISRLKKGLKSGIQGRLDGFFQVVPKTKEQLAAAAKRAQENKKLNKNKNKVTKGRR
Which binding [4] does the source give for B3 here?
Its binding is “binds”.

B4: Mms4 (coimmunoprecipitation with Rad27) (protein, UniProt P38257 1-691)
chain: MSQIVDFVEDKDSRNDASIQIIDGPSNVEIIALSESMDQDECKRAHVSSAEMIPSSPQRKSVSNDVENVDLNKSIELSAPFFQDISISKLDDFSTTVNSIIDSSLRNENNAKGNAKKLLDDLISDEWSADLESSGKKHNKSQYNLRDIAEKWGVQSLKNPEPIAVDCEYKTQGIGKTNSDISDSPKSQIGAADILFDFPLSPVKHENPTEEKHNSIANENSSPDNSLKPAGKQNHGEDGTSMAKRVYNKGEDEQEHLPKGKKRTIALSRTLINSTKLPDTVELNLSKFLDSSDSITTDVLSTPAKGSNIVRTGSQPIFSNANCFQEAKRSKTLTAEDPKCTKNTAREVSQLENYIAYGQYYTREDSKNKIRHLLKENKNAFKRVNQIYRDNIKARSQMIIEFSPSLLQLFKKGDSDLQQQLAPAVVQSSYNDSMPLLRFLRKCDSIYDFSNDFYYPCDPKIVEENVLILYYDAQEFFEQYTSQKKELYRKIRFFSKNGKHVILILSDINKLKRAIFQLENEKYKARVEQRLSGTEEALRPRSKKSSQVGKLGIKKFDLEQRLRFIDREWHVKIHTVNSHMEFINSLPNLVSLIGKQRMDPAIRYMKYAHLNVKSAQDSTETLKKTFHQIGRMPEMKANNVVSLYPSFQSLLEDIEKGRLQSDNEGKYLMTEAVEKRLYKLFTCTDPNDTIE
How did the binding [5] turn out when B4 was run?
The binding was “no binding”.
